Experimental data: PubChem BioAssay AID1159595 (NIAID, 2016)

Test: 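Which toll-like receptor pathway genes macrophages need for Pam3CSK4-induced Tnf promoter activity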 (primary screen)
Cell system: mouse RAW264.7 macrophage reporter cells
Reagent: single siRNA against mouse genes
Timing: assayed 48 to 72 hours after siRNA transfection; ligand applied for 16 hours
Conditions: Pam3CSK4 (TLR2 ligand) for 16 hours before fixation; dose not given
Measured: 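High-content imaging of Tnf promoter-driven nuclear mCherry in cells given Pam3CSK4 for 16 h, 48–72 h after transfection; value is the replicate mean of plate-normalised background-corrected robust z-scores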
Reading the numbers: Tnf reporter z-score (replicate mean): higher = stronger Tnf promoter reporter signal than negative control wells
Hit rule: 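Calls apply to single siRNAs, not genes: activity graded at absolute z of 1, 1.5, 2 and 2.5, and active means averaged z at or beyond ±1.5, i.e. activity score 50 or above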
Calls: active = strong change (up or down); inactive = little change
In all, the deposit lists 756 reagents; below is a part drawn at random. Over the whole deposit, 115 (15%) were called active. 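Active calls cover both lowered and raised reporter signal; each score refers to one siRNA rather than a whole gene.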 The numbers tell different reagents against one gene apart. No sequences are given here. Not given: the amount of reagent.

Gene | reagent | Tnf reporter z-score (replicate mean) | call
Map3k7 (mitogen-activated protein kinase kinase kinase 7) | 1 | -1.03 | inactive
Map3k7 (mitogen-activated protein kinase kinase kinase 7) | 2 | 0.266 | inactive
Map3k7 (mitogen-activated protein kinase kinase kinase 7) | 3 | -0.734 | inactive
Map3k7 (mitogen-activated protein kinase kinase kinase 7) | 4 | 0.592 | inactive
Map3k7 (mitogen-activated protein kinase kinase kinase 7) | 5 | -0.331 | inactive
Map3k7 (mitogen-activated protein kinase kinase kinase 7) | 6 | -1.76 | active
Ly96 (lymphocyte antigen 96) | 1 | 1.12 | inactive
Ly96 (lymphocyte antigen 96) | 2 | -0.794 | inactive
Ly96 (lymphocyte antigen 96) | 3 | -0.671 | inactive
Ly96 (lymphocyte antigen 96) | 4 | 0.546 | inactive
Ly96 (lymphocyte antigen 96) | 5 | -0.243 | inactive
Ly96 (lymphocyte antigen 96) | 6 | -0.674 | inactive
Ticam1 (TIR domain containing adaptor molecule 1) | 1 | 0.283 | inactive
Ticam1 (TIR domain containing adaptor molecule 1) | 2 | 1.27 | inactive
Ticam1 (TIR domain containing adaptor molecule 1) | 3 | 0.159 | inactive
Ticam1 (TIR domain containing adaptor molecule 1) | 4 | -0.858 | inactive
Ticam1 (TIR domain containing adaptor molecule 1) | 5 | 0.126 | inactive
Ticam1 (TIR domain containing adaptor molecule 1) | 6 | -1.64 | active
Tnf (tumor necrosis factor) | 1 | -0.363 | inactive
Tnf (tumor necrosis factor) | 2 | 0.679 | inactive
Tnf (tumor necrosis factor) | 3 | -1.27 | inactive
Tnf (tumor necrosis factor) | 4 | -0.799 | inactive
Tnf (tumor necrosis factor) | 5 | -1.44 | inactive
Tnf (tumor necrosis factor) | 6 | -2.38 | active
Itgax (integrin alpha X) | 1 | 1.01 | inactive
Itgax (integrin alpha X) | 2 | -0.0601 | inactive
Itgax (integrin alpha X) | 3 | -1.17 | inactive
Itgax (integrin alpha X) | 4 | 0.0481 | inactive
Itgax (integrin alpha X) | 5 | 0.758 | inactive
Itgax (integrin alpha X) | 6 | 0.345 | inactive
Il6 (interleukin 6) | 1 | -0.676 | inactive
Il6 (interleukin 6) | 2 | -0.811 | inactive
Il6 (interleukin 6) | 3 | 0.569 | inactive
Il6 (interleukin 6) | 4 | -0.0372 | inactive
Il6 (interleukin 6) | 5 | 0.507 | inactive
Il6 (interleukin 6) | 6 | 0.0893 | inactive
Tlr2 (toll-like receptor 2) | 1 | -0.447 | inactive
Tlr2 (toll-like receptor 2) | 2 | -0.257 | inactive
Tlr2 (toll-like receptor 2) | 3 | -0.29 | inactive
Tlr2 (toll-like receptor 2) | 4 | 0.968 | inactive
Tlr2 (toll-like receptor 2) | 5 | -1 | inactive
Tlr2 (toll-like receptor 2) | 6 | -1.03 | inactive
Tradd (TNFRSF1A-associated via death domain) | 1 | 2.45 | active
Tradd (TNFRSF1A-associated via death domain) | 2 | -0.652 | inactive
Tradd (TNFRSF1A-associated via death domain) | 3 | 0.195 | inactive
Tradd (TNFRSF1A-associated via death domain) | 4 | 0.749 | inactive
Tradd (TNFRSF1A-associated via death domain) | 5 | -0.309 | inactive
Tradd (TNFRSF1A-associated via death domain) | 6 | -0.0431 | inactive
Sp1 (trans-acting transcription factor 1) | 1 | -1.02 | inactive
Sp1 (trans-acting transcription factor 1) | 2 | -1.3 | inactive
Sp1 (trans-acting transcription factor 1) | 3 | -2.37 | active
Sp1 (trans-acting transcription factor 1) | 4 | -1.54 | active
Sp1 (trans-acting transcription factor 1) | 5 | -0.791 | inactive
Sp1 (trans-acting transcription factor 1) | 6 | -1.86 | active
Tlr6 (toll-like receptor 6) | 1 | -0.313 | inactive
Tlr6 (toll-like receptor 6) | 2 | 1.28 | inactive
Tlr6 (toll-like receptor 6) | 3 | -1.97 | active
Tlr6 (toll-like receptor 6) | 4 | -0.88 | inactive
Tlr6 (toll-like receptor 6) | 5 | 0.252 | inactive
Tlr6 (toll-like receptor 6) | 6 | -0.415 | inactive

Next part (2 carried over from the part before).
Gene | reagent | Tnf reporter z-score (replicate mean) | call
Tlr6 (toll-like receptor 6) | 5 | 0.252 | inactive
Tlr6 (toll-like receptor 6) | 6 | -0.415 | inactive
Tbk1 (TANK-binding kinase 1) | 1 | -0.381 | inactive
Tbk1 (TANK-binding kinase 1) | 2 | 0.329 | inactive
Tbk1 (TANK-binding kinase 1) | 3 | -0.322 | inactive
Tbk1 (TANK-binding kinase 1) | 4 | 0.274 | inactive
Tbk1 (TANK-binding kinase 1) | 5 | 0.473 | inactive
Tbk1 (TANK-binding kinase 1) | 6 | 1.14 | inactive
Tlr1 (toll-like receptor 1) | 1 | 0.302 | inactive
Tlr1 (toll-like receptor 1) | 2 | 0.318 | inactive
Tlr1 (toll-like receptor 1) | 3 | 0.132 | inactive
Tlr1 (toll-like receptor 1) | 4 | 0.498 | inactive
Tlr1 (toll-like receptor 1) | 5 | 0.172 | inactive
Tlr1 (toll-like receptor 1) | 6 | -0.149 | inactive
Mapk13 (mitogen-activated protein kinase 13) | 1 | -1.47 | inactive
Mapk13 (mitogen-activated protein kinase 13) | 2 | -1.19 | inactive
Mapk13 (mitogen-activated protein kinase 13) | 3 | -0.851 | inactive
Mapk13 (mitogen-activated protein kinase 13) | 4 | -1.07 | inactive
Mapk13 (mitogen-activated protein kinase 13) | 5 | -0.637 | inactive
Mapk13 (mitogen-activated protein kinase 13) | 6 | -1.28 | inactive
Stat1 (signal transducer and activator of transcription 1) | 1 | 0.402 | inactive
Stat1 (signal transducer and activator of transcription 1) | 2 | 0.376 | inactive
Stat1 (signal transducer and activator of transcription 1) | 3 | -0.764 | inactive
Stat1 (signal transducer and activator of transcription 1) | 4 | -0.133 | inactive
Stat1 (signal transducer and activator of transcription 1) | 5 | -0.886 | inactive
Stat1 (signal transducer and activator of transcription 1) | 6 | -1.95 | active
Otud5 (OTU domain containing 5) | 1 | 0.177 | inactive
Otud5 (OTU domain containing 5) | 2 | -1.45 | inactive
Otud5 (OTU domain containing 5) | 3 | -0.576 | inactive
Otud5 (OTU domain containing 5) | 4 | -0.755 | inactive
Otud5 (OTU domain containing 5) | 5 | -1.13 | inactive
Otud5 (OTU domain containing 5) | 6 | -1.22 | inactive
Casp8 (caspase 8) | 1 | 0.132 | inactive
Casp8 (caspase 8) | 2 | -1.1 | inactive
Casp8 (caspase 8) | 3 | -0.224 | inactive
Casp8 (caspase 8) | 4 | 0.581 | inactive
Casp8 (caspase 8) | 5 | 1.15 | inactive
Casp8 (caspase 8) | 6 | 0.624 | inactive
Mapk10 (mitogen-activated protein kinase 10) | 1 | 1.63 | active
Mapk10 (mitogen-activated protein kinase 10) | 2 | 1.39 | inactive
Mapk10 (mitogen-activated protein kinase 10) | 3 | -0.635 | inactive
Mapk10 (mitogen-activated protein kinase 10) | 4 | 0.968 | inactive
Mapk10 (mitogen-activated protein kinase 10) | 5 | -0.767 | inactive
Mapk10 (mitogen-activated protein kinase 10) | 6 | -0.196 | inactive
Arf6 (ARF GTPase 6) | 1 | -0.313 | inactive
Arf6 (ARF GTPase 6) | 2 | 0.841 | inactive
Arf6 (ARF GTPase 6) | 3 | 0.0089 | inactive
Arf6 (ARF GTPase 6) | 4 | 0.394 | inactive
Arf6 (ARF GTPase 6) | 5 | 1.48 | inactive
Arf6 (ARF GTPase 6) | 6 | 0.883 | inactive
Pik3r1 (phosphoinositide-3-kinase regulatory subunit 1) | 1 | -1.39 | inactive
Pik3r1 (phosphoinositide-3-kinase regulatory subunit 1) | 2 | 0.0859 | inactive
Pik3r1 (phosphoinositide-3-kinase regulatory subunit 1) | 3 | 0.228 | inactive
Pik3r1 (phosphoinositide-3-kinase regulatory subunit 1) | 4 | 0.21 | inactive
Pik3r1 (phosphoinositide-3-kinase regulatory subunit 1) | 5 | -0.427 | inactive
Pik3r1 (phosphoinositide-3-kinase regulatory subunit 1) | 6 | -1.28 | inactive
Ube2v1 (ubiquitin-conjugating enzyme E2 variant 1) | 1 | -0.408 | inactive
Ube2v1 (ubiquitin-conjugating enzyme E2 variant 1) | 2 | 0.42 | inactive
Ube2v1 (ubiquitin-conjugating enzyme E2 variant 1) | 3 | 0.203 | inactive
Ube2v1 (ubiquitin-conjugating enzyme E2 variant 1) | 4 | 0.224 | inactive
Ube2v1 (ubiquitin-conjugating enzyme E2 variant 1) | 5 | 2.63 | active
Ube2v1 (ubiquitin-conjugating enzyme E2 variant 1) | 6 | -2.57 | active
Mapk1 (mitogen-activated protein kinase 1) | 1 | -1.17 | inactive
Mapk1 (mitogen-activated protein kinase 1) | 2 | -2.07 | active
Mapk1 (mitogen-activated protein kinase 1) | 3 | -2.22 | active
Mapk1 (mitogen-activated protein kinase 1) | 4 | -0.483 | inactive
Mapk1 (mitogen-activated protein kinase 1) | 5 | -0.0672 | inactive
Mapk1 (mitogen-activated protein kinase 1) | 6 | -0.425 | inactive
Irf5 (interferon regulatory factor 5) | 1 | -2.22 | active
Irf5 (interferon regulatory factor 5) | 2 | -0.331 | inactive
Irf5 (interferon regulatory factor 5) | 3 | 0.232 | inactive
Irf5 (interferon regulatory factor 5) | 4 | -0.949 | inactive
Irf5 (interferon regulatory factor 5) | 5 | -0.197 | inactive
Irf5 (interferon regulatory factor 5) | 6 | 0.363 | inactive
Mapk12 (mitogen-activated protein kinase 12) | 1 | -0.0719 | inactive
Mapk12 (mitogen-activated protein kinase 12) | 2 | -0.247 | inactive
Mapk12 (mitogen-activated protein kinase 12) | 3 | 0.169 | inactive
Mapk12 (mitogen-activated protein kinase 12) | 4 | 1.55 | active
Mapk12 (mitogen-activated protein kinase 12) | 5 | -0.532 | inactive
Mapk12 (mitogen-activated protein kinase 12) | 6 | -1.65 | active
Map2k3 (mitogen-activated protein kinase kinase 3) | 1 | -0.242 | inactive
Map2k3 (mitogen-activated protein kinase kinase 3) | 2 | -0.66 | inactive
Map2k3 (mitogen-activated protein kinase kinase 3) | 3 | 0.178 | inactive
Map2k3 (mitogen-activated protein kinase kinase 3) | 4 | -1.12 | inactive
Map2k3 (mitogen-activated protein kinase kinase 3) | 5 | -0.862 | inactive
Map2k3 (mitogen-activated protein kinase kinase 3) | 6 | 0.346 | inactive
